# Experimental data: PubChem BioAssay AID1259327 (Drosophila RNAi Screening Center, 2017)
# Purpose: 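Knock-downs altering cellular ATP with no metal added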
# System: Drosophila S2R+ cells
# Reagents: long dsRNA against Drosophila genes
# Time to read-out: 5 days (water added on day 4, read one day later)
# Conditions: water added as vehicle, no metal, one day before read-out
# Measured: 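Luciferase ATP signal per well, normalised to plate mean, duplicate average converted to z-score across plates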
# Direction: ATP z-score: higher = more total ATP than typical wells; ATP luminescence: higher = more total ATP
# Call rule: 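Called active when the ATP z-score exceeds 1.5 or falls below -1.5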
# Meaning of the calls: active = hit: ATP up or down; inactive = no clear ATP change
# This is an unselected part of about 3,100 reagents. In the full data, 378 (12%) got an active call. 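Hits include both directions; z-score sign shows ATP rise or fall; raw luminescence values are not plate-normalised.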 Names joined by + are all predicted targets of the reagent. Not given: the amount of reagent.
gene,DRSC id,"ATP z-score, duplicate mean","ATP luminescence, replicate 1 (RLU)","ATP luminescence, replicate 2 (RLU)",call
Nmdar1,DRSC12071,1.9,6.68e5,9.99e5,active
Nmdar1,DRSC12356,0.86,1.04e6,9.74e5,inactive
Nmdar1,DRSC24657,-0.774,7.63e5,7.45e5,inactive
zpg,DRSC09702,0.0918,8.82e5,9.32e5,inactive
zpg,DRSC26258,-0.677,7.82e5,7.50e5,inactive
CG5535,DRSC10514,-1.03,5.45e5,6.99e5,inactive
CG5535,DRSC29215,-0.142,7.98e5,8.13e5,inactive
CG17321,DRSC02598,0.0967,7.28e5,7.45e5,inactive
CG17321,DRSC25649,0.103,9.07e5,7.70e5,inactive
MstProx + Mst84Da,DRSC12597,-0.159,8.67e5,8.83e5,inactive
Efr,DRSC18322,0.806,7.63e5,7.72e5,inactive
Efr,DRSC26945,-0.859,8.72e5,1.01e6,inactive
CG13101,DRSC02201,0.414,4.27e5,5.95e5,inactive
CG13101,DRSC39475,-0.169,4.72e5,4.13e5,inactive
PGRP-LF + UGP,DRSC10418,-0.272,8.89e5,8.33e5,inactive
CG14223,DRSC24816,1.88,9.36e5,9.15e5,active
CG14223,DRSC39909,-1.49,4.48e5,4.67e5,inactive
Vamp7,DRSC06599,-1.49,4.99e5,4.70e5,inactive
CG4168,DRSC01447,1.71,9.87e5,8.66e5,active
CG4168,DRSC01933,-1.25,3.29e5,4.60e5,inactive
CG4168,DRSC22789,-0.654,4.89e5,5.60e5,inactive
Mvl,DRSC16752,0.0966,7.65e5,6.68e5,inactive
Mvl,DRSC39671,-0.473,3.99e5,4.68e5,inactive
CCHa1-R,DRSC06456,0.163,7.19e5,8.03e5,inactive
CCHa1-R,DRSC06715,0.4,6.14e5,6.98e5,inactive
Oamb,DRSC13433,-0.828,2.63e5,6.69e5,inactive
Oamb,DRSC15120,0.137,7.57e5,7.58e5,inactive
Oamb,DRSC16763,-0.874,2.65e5,6.54e5,inactive
ABCB7,DRSC08603,0.391,6.26e5,6.84e5,inactive
alpha-Cat,DRSC39510,0.424,5.17e5,4.47e5,inactive
Tim17a2,DRSC12252,-1.36,7.31e5,7.05e5,inactive
Tim17a2,DRSC23837,1.73,1.02e6,1.11e6,active
Sema5c,DRSC11279,0.669,1.02e6,9.46e5,inactive
Sema5c,DRSC26621,-0.246,9.91e5,1.14e6,inactive
CG32669,DRSC18864,-0.823,4.46e5,6.44e5,inactive
CG5554,DRSC04513,-0.24,7.09e5,6.93e5,inactive
CG5554,DRSC25559,0.426,1.01e6,7.92e5,inactive
CG1265,DRSC08288,-0.83,8.03e5,7.72e5,inactive
CG1265,DRSC39523,0.951,4.99e5,5.32e5,inactive
Ir60d,DRSC04218,0.164,6.85e5,8.40e5,inactive
CG13014,DRSC19533,-0.462,6.66e5,7.20e5,inactive
CG13014,DRSC38999,1,5.56e5,7.75e5,inactive
PGRP-LA,DRSC10327,0.796,9.81e5,1.02e6,inactive
PGRP-LA,DRSC10414,0.473,8.17e5,7.69e5,inactive

In a second layout: 6 of the entries above
| gene | DRSC id | ATP z-score, duplicate mean | ATP luminescence, replicate 1 (RLU) | ATP luminescence, replicate 2 (RLU) | call |
| --- | --- | --- | --- | --- | --- |
| Nmdar1 | DRSC24657 | -0.774 | 7.63e5 | 7.45e5 | inactive |
| zpg | DRSC09702 | 0.0918 | 8.82e5 | 9.32e5 | inactive |
| zpg | DRSC26258 | -0.677 | 7.82e5 | 7.50e5 | inactive |
| CG5535 | DRSC10514 | -1.03 | 5.45e5 | 6.99e5 | inactive |
| CG5535 | DRSC29215 | -0.142 | 7.98e5 | 8.13e5 | inactive |
| CG17321 | DRSC02598 | 0.0967 | 7.28e5 | 7.45e5 | inactive |

Next reagents follow.
gene,DRSC id,"ATP z-score, duplicate mean","ATP luminescence, replicate 1 (RLU)","ATP luminescence, replicate 2 (RLU)",call
PGAP3,DRSC04989,0.174,7.17e5,7.83e5,inactive
PGAP3,DRSC39550,-0.57,3.97e5,4.57e5,inactive
stj,DRSC06124,-1.23,5.96e5,6.03e5,inactive
M6,DRSC11869,-0.966,8.20e5,7.21e5,inactive
M6,DRSC39840,-0.854,4.37e5,4.00e5,inactive
CG9760,DRSC11101,-1.74,7.03e5,6.34e5,active
CG9760,DRSC28846,1.24,1.09e6,8.61e5,inactive
CG31522,DRSC12005,-1.96,5.55e5,7.06e5,active
CG31522,DRSC29792,-0.762,4.55e5,5.76e5,inactive
Ent3,DRSC09822,-1.9,5.31e5,5.26e5,active
Ent3,DRSC29706,0.0529,6.19e5,5.49e5,inactive
Npc1b,DRSC20488,0.000196,6.86e5,8.03e5,inactive
Npc1b,DRSC39575,-0.918,3.87e5,4.19e5,inactive
CG1607,DRSC15130,-0.535,6.48e5,6.53e5,inactive
CG1607,DRSC27010,-1.11,8.92e5,9.75e5,inactive
oys,DRSC05203,-1.77,5.21e5,5.80e5,active
oys,DRSC06751,-1.13,6.08e5,6.12e5,inactive
oys,DRSC26939,-0.17,8.02e5,9.62e5,inactive
rho-6,DRSC02588,-0.47,6.55e5,6.97e5,inactive
rho-6,DRSC29070,0.48,9.31e5,8.34e5,inactive
Nhe1,DRSC00762,-0.707,4.33e5,4.26e5,inactive
Nhe1,DRSC39761,0.34,4.85e5,5.21e5,inactive
CG11147,DRSC02129,-0.629,7.00e5,6.19e5,inactive
ppk,DRSC03595,-0.273,7.12e5,6.82e5,inactive
ppk,DRSC25361,-0.571,7.88e5,7.71e5,inactive
